No constants are given. Whether binding was seen depends on the method and setting. Binding seen in cells or lysates may run through a third protein. Here binding means that the protein was enriched with, or labelled near, the bait; the list need not be complete.
T1: potassium channel tetramerization domain containing 19 (KCTD19), endogenous in mouse testis (mouse (endogenous in testis)) (UniProt Q562E2)
T1 sequence: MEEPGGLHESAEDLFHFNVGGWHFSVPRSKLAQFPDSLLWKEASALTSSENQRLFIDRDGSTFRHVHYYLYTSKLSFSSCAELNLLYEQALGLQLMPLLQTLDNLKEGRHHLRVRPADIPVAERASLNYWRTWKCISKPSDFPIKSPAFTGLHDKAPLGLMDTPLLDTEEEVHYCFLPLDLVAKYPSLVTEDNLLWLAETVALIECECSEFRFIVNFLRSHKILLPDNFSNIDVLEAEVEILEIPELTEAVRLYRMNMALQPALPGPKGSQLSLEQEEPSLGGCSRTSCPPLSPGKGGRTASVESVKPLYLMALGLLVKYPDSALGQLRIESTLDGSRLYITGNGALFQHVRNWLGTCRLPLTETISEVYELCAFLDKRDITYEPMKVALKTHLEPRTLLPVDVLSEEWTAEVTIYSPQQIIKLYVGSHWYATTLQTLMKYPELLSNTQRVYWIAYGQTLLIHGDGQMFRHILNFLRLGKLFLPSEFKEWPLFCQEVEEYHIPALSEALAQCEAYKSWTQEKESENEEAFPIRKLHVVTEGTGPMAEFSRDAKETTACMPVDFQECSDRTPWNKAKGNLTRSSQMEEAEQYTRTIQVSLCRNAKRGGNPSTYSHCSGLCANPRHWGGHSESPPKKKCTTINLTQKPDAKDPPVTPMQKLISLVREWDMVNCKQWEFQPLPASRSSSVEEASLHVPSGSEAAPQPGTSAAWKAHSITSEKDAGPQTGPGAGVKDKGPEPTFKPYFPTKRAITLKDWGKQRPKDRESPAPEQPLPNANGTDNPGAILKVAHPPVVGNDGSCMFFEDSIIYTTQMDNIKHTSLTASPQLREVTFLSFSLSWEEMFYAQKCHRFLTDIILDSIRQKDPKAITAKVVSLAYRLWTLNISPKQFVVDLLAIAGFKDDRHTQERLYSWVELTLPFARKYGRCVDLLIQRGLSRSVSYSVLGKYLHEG

By UniProt entry, the sequences of proteins in these tests, tags left out.
UniProt O09106: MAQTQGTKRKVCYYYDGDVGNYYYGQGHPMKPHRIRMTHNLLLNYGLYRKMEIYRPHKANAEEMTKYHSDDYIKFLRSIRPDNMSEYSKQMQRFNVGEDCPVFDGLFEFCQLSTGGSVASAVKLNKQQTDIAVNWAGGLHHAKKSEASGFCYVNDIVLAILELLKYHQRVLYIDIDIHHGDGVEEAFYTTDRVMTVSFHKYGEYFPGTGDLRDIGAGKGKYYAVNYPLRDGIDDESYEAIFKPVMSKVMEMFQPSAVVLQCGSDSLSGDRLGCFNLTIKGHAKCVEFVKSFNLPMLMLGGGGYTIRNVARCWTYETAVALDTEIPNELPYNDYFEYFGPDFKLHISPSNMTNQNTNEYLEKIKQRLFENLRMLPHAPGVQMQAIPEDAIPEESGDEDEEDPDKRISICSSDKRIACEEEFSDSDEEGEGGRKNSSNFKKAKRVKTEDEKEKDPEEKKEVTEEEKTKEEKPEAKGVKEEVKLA
UniProt Q80TT8: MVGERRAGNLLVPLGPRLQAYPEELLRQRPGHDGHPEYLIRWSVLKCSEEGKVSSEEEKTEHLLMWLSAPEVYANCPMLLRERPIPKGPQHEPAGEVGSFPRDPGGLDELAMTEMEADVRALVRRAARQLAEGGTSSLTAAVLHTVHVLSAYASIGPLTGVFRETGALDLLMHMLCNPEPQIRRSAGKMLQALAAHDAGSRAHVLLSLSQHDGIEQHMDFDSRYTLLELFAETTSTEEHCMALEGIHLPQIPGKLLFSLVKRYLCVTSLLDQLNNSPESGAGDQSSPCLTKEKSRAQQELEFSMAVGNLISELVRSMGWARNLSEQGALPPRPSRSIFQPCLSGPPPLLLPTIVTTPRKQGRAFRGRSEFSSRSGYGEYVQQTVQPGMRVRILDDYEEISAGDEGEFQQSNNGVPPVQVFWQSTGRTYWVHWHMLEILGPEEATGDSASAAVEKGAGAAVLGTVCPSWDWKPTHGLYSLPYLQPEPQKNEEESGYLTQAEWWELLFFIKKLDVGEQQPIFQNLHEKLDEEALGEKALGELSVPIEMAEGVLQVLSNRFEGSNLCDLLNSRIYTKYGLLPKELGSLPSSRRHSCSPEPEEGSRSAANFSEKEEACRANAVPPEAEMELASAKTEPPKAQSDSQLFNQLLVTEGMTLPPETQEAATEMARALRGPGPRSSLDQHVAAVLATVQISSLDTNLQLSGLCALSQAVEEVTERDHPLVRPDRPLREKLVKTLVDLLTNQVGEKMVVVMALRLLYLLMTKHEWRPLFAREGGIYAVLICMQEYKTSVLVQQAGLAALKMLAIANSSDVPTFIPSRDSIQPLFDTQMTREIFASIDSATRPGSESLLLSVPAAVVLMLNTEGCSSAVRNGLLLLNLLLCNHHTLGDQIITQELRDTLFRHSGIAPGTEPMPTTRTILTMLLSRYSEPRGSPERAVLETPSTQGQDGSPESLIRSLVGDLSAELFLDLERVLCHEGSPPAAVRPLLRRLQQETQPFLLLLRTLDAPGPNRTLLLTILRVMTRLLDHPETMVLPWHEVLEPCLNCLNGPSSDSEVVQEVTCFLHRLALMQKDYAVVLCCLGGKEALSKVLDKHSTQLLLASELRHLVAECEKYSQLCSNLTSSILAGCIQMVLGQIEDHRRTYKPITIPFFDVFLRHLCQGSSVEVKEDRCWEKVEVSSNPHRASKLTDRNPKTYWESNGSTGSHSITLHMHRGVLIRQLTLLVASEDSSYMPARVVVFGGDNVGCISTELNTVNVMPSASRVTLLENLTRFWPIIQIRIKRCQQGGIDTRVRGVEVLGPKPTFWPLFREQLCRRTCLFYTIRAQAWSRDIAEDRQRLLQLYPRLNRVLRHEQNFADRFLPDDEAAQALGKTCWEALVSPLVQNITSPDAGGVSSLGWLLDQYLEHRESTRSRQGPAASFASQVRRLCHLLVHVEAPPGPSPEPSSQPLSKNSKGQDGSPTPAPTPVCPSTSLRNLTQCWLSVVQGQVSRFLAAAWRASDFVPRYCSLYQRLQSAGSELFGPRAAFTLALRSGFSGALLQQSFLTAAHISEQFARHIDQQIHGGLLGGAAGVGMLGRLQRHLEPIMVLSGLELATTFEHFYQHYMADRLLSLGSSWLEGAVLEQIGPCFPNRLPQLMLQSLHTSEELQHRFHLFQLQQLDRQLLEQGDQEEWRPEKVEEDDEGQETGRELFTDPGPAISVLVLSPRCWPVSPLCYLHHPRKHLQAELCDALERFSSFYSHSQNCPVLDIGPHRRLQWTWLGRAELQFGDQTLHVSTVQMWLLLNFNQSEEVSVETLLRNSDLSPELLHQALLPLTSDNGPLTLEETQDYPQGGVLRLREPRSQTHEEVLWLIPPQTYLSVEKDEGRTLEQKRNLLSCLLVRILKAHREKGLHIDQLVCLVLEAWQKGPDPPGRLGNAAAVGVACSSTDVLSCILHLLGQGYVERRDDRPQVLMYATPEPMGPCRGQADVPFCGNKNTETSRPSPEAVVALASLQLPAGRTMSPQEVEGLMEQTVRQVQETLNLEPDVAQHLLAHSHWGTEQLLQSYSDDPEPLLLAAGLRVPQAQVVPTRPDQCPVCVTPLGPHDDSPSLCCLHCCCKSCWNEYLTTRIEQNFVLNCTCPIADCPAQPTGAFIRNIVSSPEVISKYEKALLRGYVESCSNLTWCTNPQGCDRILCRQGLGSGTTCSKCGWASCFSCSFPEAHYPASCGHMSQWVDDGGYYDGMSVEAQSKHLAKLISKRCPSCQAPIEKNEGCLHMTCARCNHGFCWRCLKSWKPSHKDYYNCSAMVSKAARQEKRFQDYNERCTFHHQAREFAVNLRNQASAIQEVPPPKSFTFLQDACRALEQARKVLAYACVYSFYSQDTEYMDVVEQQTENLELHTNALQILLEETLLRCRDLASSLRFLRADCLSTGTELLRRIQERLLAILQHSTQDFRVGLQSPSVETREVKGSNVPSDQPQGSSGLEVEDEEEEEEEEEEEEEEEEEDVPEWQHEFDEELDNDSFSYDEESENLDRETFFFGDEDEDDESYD


Molecular target: T1, potassium channel tetramerization domain containing 19 (KCTD19), endogenous in mouse testis (mouse (endogenous in testis))
Test: affinity purification with mass spectrometry; juvenile (PND21) WT testis lysate against Kctd19 del/del testis lysate as control; IP with anti-KCTD19 rabbit pAb or rat mAb #19-3 on Dynabeads Protein G; NP40 lysis buffer, 1 h at 4°C, 3 washes; LC-MS/MS

Molecule | binding
histone deacetylase 1 (HDAC1), endogenous in mouse testis (from UniProt O09106 1-482) | binds
CUL9, endogenous in mouse testis (from UniProt Q80TT8 1-2530) | binds
zinc finger protein 541 (ZFP541), endogenous in mouse testis (protein, UniProt Q0GGX2-1 1-1363) MEPYSLGEEGALPSEGHLPSFSESQVLNCSDTLNRDLGPSTRDLLYAGLSGLDLDPSLSTSDMPSEVLEDNLDTLSLYSGKDSDSVKLLEEYADSESQTSLQDLGLGALKVPKEADEGGRATGSTRKGKRQHSSPQNPLLDCSLCGKVFSSASSLSKHYLTHSQERKHVCKVCSKAFKRQDHLTGHMLTHQKTKPFVCIEQGCSKSYCDYRSLRRHYEVQHGVCILKETPPEEEAYGDPTHNHDVANQPPPSGLRSLGPPEARSPGSVLPNRDLLRCIVSSIVHQKIPSPGPAVGPSDTEARSSACACPTSLGSSSCTPASTPVALGTLGSEIPEETHPPRKEAATEVFTPVQSRAAENGVPDPPESELESESPRLQRPSSLEGWPEGSSLPACLPLFRGHSVPSGSQPSSHNFQWLRNLPGCPKNKGSNVFMVHKPPAVASREGSEGGGSGPSSTPTSVEPSPSLGTTQEELLPFPPALLKAPGEASSEVRQAAGEDETWAPKKCKPDCESFPWQSPTELGLQDAQNPGGLPSDATPLFRQLFMKSQESLVSHEQMQVLQMIAKSQRIFSHTQVATASAQRPGPEGKQSTLKPLQGPWPPQTLPPAPTVDSFQIGPGHSEPEGSPVRRRKTMPAVSRETSPGGPRRDTKGGPKVASAPPSLTGPGLLPSRNPDSSSLAKGTLDLGDIIPNAGSRQSQLGGDEPAGTQLVGKQGQGENGLASGAMRGEKGPACPRGGGYRLFSGHPRAQRFSGFRKEKVKMDVCCAASPSQVAMASFSSAGPLADPPRDMKSKLTIFNRIQGGNIYRLPHPVKEESLAGGCHQPNGGPTDWMESKSTFVCKNCSQMFYTEKGLSSHMCFHSDQWPSPRGKQEQQVKGQMVASVKRKAGREEGAVEDMKRHYDCSSSEPQDVTILSMLVSSGSCGVTPVVLSSLLQGQEKDGEERDSKESCQYRKRKKRPQPKALFAPPAPSALGEPGPGGCHQSCLHSPVFLVDHLLKGLFQCSPYTPPPMLSPIREGSGLYFNTLCSTSRAGPHLISPVLDQVDSSFGICVVKDDTKISIEPHINVGSRFQAEIPELQERLLARVDENVASLVWKPWGDVMTNPETQDRVMELCNVACSSVMPGGGTNLELALHCLHDAQGSVQVALETLLLRGPQKPRTHPLADYRYTGSDIWTPMEKRLFKKAFCAHKKDFYLIHKMIQTKSVAQCVEYYYIWKKMVKFDCGRAPGLEKRGRRELDEVERTEDKVTCSPRERPTHRPTPELKIKTKSYRRESILHSSPSAAPKRTPEPPGSVESQGVFPCRECERVFDKIKSRNAHMKRHRLQEHVEPVRVKWPVKPYPLKEEEEEEEEELGADMGPLQW | binds
DNTTIP1, endogenous in mouse testis (protein, UniProt Q99LB0 1-328) MGATGDTEQPRGPGGAERGGLELGDAGAAGQPVLTNPWNIMIKHRQVQRRGRRSQMTTSFTDPAISMDLLRAVLQPSINEEIQGVFNKYMKFFQKAALNVRDNVGEEVDAEQLIQEACRSCLEQAKLLFSDGEKVIPRLAHELPGIKRGRQAEEESHRGSPIPKKRKGRPPGHVLSNDRAAAGMVWKQKSCEPIRREGPKWDPARLNESTTFVLGSRANKALGMGGTRGRIYIKHPHLFKYAADPQDKHWLAEQHHMRATGGKMAYLLIEEDIRDLAASDDYRGCLDLKLEELKSFVLPSWMVEKMRKYMETLRTENEHRAAEAPPQT | binds
